“Also recorded” adds a separate entry of the source. At least one compound was matched to its structure with a doubt left.
Experiments:
[1] = system: endogenous htt S421 phosphorylation in the brain; test: Huntingtin S421 phosphorylation in brain after FK506 administration to mice; type: in vivo, mouse; conditions: 5 mg/kg, single administration
[2] = system: striatal neurons transfected with 480-68Q; test: polyQ-huntingtin-induced neuronal death in transfected striatal neurons; type: cell-based, rat; conditions: 0.3 and 1 μM FK506 vs vehicle
[3] = system: Akt phosphorylation at S473; test: Akt S473 phosphorylation in brain after FK506 administration to mice; type: in vivo, mouse; conditions: FK506 5 mg/kg intraperitoneally or orally
[4] = system: endogenous huntingtin S421 phosphorylation; test: Phosphorylation of endogenous huntingtin at S421 in Jurkat T cells (Western blot); type: cell-based, human; conditions: FK506 1 μM
Protocol: (§1) Cell culture, transfection and drug treatments. Primary cultures of striatal neurons were prepared from E17 Sprague Dawley rats and transfected at 4 days in vitro by a modified calcium phosphate technique (Saudou et al., 1998). Mouse neuronal cells derived from wildtype huntingtin mice (neuronal cells, +/+) and from Hdh^Q109 knock-in mice (109Q/109Q) were cultured as previously described (Trettel et al., 2000) and transfected with Lipofectamine 2000 (Invitrogen, Breda, The Netherlands). When cotransfected (FIG. 3A), the ratio 480-17Q/Akt/CaNA-ΔCaM/CaNB was 1:0.5:1:1. Human HEK 293 cells were cultured in DMEM supplemented with 10% bovine calf serum (BCS) and were transfected by the calcium phosphate technique. SHSY-5Y cells and Jurkat T cells were grown in RPMI supplemented with 10% BCS. Jurkat T cells were transferred to tyrodes buffer (137 mM NaCl, 3 mM KCl, 20 mM Hepes, 2 mM MgCl2, 1 mM CaCl2, 5.6 mM glucose, 0.3 mg/ml BSA; 4×10^6 cells/ml) prior addition of FK506 (1 μM) and/or ionomycin (2.5 μM).
(§2) Western blot analysis. After transfection/incubation with drugs, cells were washed with ice cold phosphate-buffered saline prior to scraping and lysis. […] Quantification of the signal was performed by densitometric scanning of the film using ImageJ software.

[5] = system: wild-type and polyQ-huntingtin S421 phosphorylation; test: Phosphorylation of S421 in +/+ and 109Q/109Q knock-in neuronal cells (Western blot); type: cell-based, mouse; conditions: +/+ and 109Q/109Q cells, FK506 0.2 μM, 48 hr
[6] = system: endogenous huntingtin S421 phosphorylation; test: Phosphorylation of S421 in primary striatal neurons (Western blot); type: cell-based; conditions: rat striatal neurons
Protocol: as §1, §2

C=CC[C@@H]1/C=C(\C)C[C@H](C)C[C@H](OC)[C@H]2O[C@@](O)(C(=O)C(=O)N3CCCC[C@H]3C(=O)O[C@H](/C(C)=C/[C@@H]3CC[C@@H](O)[C@H](OC)C3)[C@H](C)[C@@H](O)CC1=O)[C@H](C)C[C@@H]2OC [FK506]
phosphorylation of endogenous htt on S421 in the brain ([1]; intraperitoneal): two/three-fold increase
phosphorylation of endogenous htt on S421 in the brain ([1]; oral): two/three-fold increase
polyQ-induced neuronal death [2]: decreased polyQ-induced neuronal death; also recorded: significantly reduced neuronal death induced by 480-68Q
level of Akt phosphorylation at S473 in brain [3]: not regulated
phosphorylation of endogenous huntingtin at S421 ([4]; 20 min): increased the phosphorylation of endogenous huntingtin at S421
effect on ionomycin-elicited S421 dephosphorylation ([4]; ionomycin 2.5 μM): blocked; also recorded: prevented
phosphorylation of S421 [5]: increased the phosphorylation of S421 on wild-type and polyQ-huntingtin
time-course of S421 phosphorylation ([6]; 1 μM FK506, different times): increased over time
dose-dependent phosphorylation of S421 ([6]; increasing concentrations, 2 h): increase in S421 phosphorylation
